Test [1] addresses T1, CAGE-derived ^269GTGKT^273 peptide (human).
T1 sequence (peptide, biotin-labeled in the immunoprecipitation (position not stated)): GTGKT
Nature of the test: co-IP; immunoprecipitation of biotin-labeled GTGKT peptide; personal observations, not shown.

By UniProt entry, the sequences of proteins in these tests, tags left out.
UniProt Q86TM3: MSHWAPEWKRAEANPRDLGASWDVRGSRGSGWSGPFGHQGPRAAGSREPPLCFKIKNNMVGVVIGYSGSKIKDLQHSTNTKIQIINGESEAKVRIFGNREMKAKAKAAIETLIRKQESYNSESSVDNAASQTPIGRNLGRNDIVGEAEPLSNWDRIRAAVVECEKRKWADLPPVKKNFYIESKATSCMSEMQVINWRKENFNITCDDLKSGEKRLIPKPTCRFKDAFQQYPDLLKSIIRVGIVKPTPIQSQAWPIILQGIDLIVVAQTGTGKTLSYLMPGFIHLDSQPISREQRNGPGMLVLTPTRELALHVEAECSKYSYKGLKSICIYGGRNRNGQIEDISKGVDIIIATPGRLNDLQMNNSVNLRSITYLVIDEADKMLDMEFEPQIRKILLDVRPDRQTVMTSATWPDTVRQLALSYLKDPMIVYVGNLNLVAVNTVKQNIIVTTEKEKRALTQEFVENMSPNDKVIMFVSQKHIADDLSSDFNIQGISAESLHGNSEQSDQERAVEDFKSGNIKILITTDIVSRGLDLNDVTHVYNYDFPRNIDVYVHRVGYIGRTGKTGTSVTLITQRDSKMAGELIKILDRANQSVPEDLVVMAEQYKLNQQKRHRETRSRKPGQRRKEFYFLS

In test [2] the target is HER2 (human (endogenous in Malme3M^R)) (UniProt P04626). Description: co-IP; lysates of Malme3M^R-miR-217 cells transfected with miR-217 inhibitor, immunoprecipitation and immunoblot. A general note: In western blotting, separated proteins are transferred to a membrane and probed.
The target is the same in test [3]. Nature of the test: co-IP; lysates of Malme3M^R cells treated with the indicated peptide (10 μM) for 48 h, immunoprecipitation and immunoblot.
For test [4] the target is unchanged. Description: co-IP; tumor tissue lysates (RIPA buffer) of Malme3M^R xenografts in nude mice, scrambled siRNA, immunoprecipitation and immunoblot.
For test [5] the target is unchanged. Description: co-IP; lysates of Malme3M^R cells transfected with CAGE siRNA (10 nM, 48 h), immunoprecipitated with the indicated antibody (2 μg/ml), then immunoblot.
The target is the same in test [6]. Description: condition: only in cells that stably express miR-217 (lower expression of CAGE and HER2); co-IP; lysates of Malme3M^R-miR-217 cells (stably express miR-217), immunoprecipitation and immunoblot.
Test [7] has the same target. Nature of the test: condition: only CAGE siRNA (100 nM) injected in vivo; co-IP; tumor tissue lysates (RIPA buffer) of Malme3M^R xenografts after in vivo down-regulation of CAGE (CAGE siRNA 100 nM via tail vein), immunoprecipitation and immunoblot.
Test [8] shares this target. Description: co-IP; Malme3M^R cell lysates immunoprecipitated with the indicated antibody (2 μg/ml), then immunoblot; cells untreated, treated with IgG, cetuximab (10 μg/ml) or gefitinib (1 μM) for 24 h, or transfected with control or EGFR siRNA (10 nM, 48 h).
The target of test [9] is pEGFR^Y845 (human (endogenous in Malme3M^R)) (UniProt P00533). The description is as above.

No constants are given. Whether binding was seen depends on the method and setting. Binding seen in cells or lysates may run through a third protein. Some results given as binding are weak or reduced against the parent protein; the word gives no strength.

Consider “CAGE, a cancer/testis antigen (from UniProt Q86TM3 1-631)”, for which the binding entry is given as “binds” in test [1]; “binds” in test [2]; “binds” in [3]; “binds” in test [4]; “no binding (condition: CAGE siRNA (10 nM))” in [5]; “no binding” in test [6]. For the same substance, the binding result in test [7] is listed as “no binding”; in [8] it was “binds”; in [9], “binds”.

For the origin of these results see paper PMC4891121.
